Assay results: patent US7345038B2, “Pyridyloxymethyl and benzisoxazole azabicyclic derivatives” (Pfizer, Inc, priority 2003, dated 2008)
Some entries share one result that the patent states for a list of compounds.

Molecular target: D2, 5HT1B and 5HT2A receptors
Assay: Receptor binding, Ki at D2, 5HT1B and 5HT2A receptors
Settings: about 20 nM or less for at least two of the receptors D2, 5HT1B and 5HT2A, or an effective Ki value at about 10 nM or less for each of said receptors; receptor not specified per compound

CC1CN1Cc1ccc(OCC2CCC3CN(c4noc5ccccc45)CCN3C2)nc1 [Example 60, (7R,9aS)-trans-2-Benzo[d]isoxazol-3-yl-7-[5-(2-methyl-aziridin-1-ylmethyl)-pyridin-2-yloxymethyl]-octahydro-pyrido[1,2-a]pyrazine]
Ki: ≤ 20 nM
